Reference: PubChem BioAssay AID504744 (Drosophila RNAi Screening Center, 2011)

Screen: 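Find genes whose loss alters insulin-driven dAkt phosphorylation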 (primary screen)
Cell system: Drosophila Kc167 cells
Knock-down reagent: long dsRNA against Drosophila genes, 250 ng dsRNA per well of a 384-well plate
Time to read-out: 3 days of knock-down, then overnight serum-free starvation before stimulation
Treatment: bovine insulin at 387 nM for 10 minutes after 12 h without serum
Detection: 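Per-well phospho-dAkt level from an in-cell fluorescent antibody stain, divided by a DNA-dye signal; log2 residuals turned into z-scores that take cell number into account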
Hit rule: 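Hit in the insulin screen when the two-replicate mean z-score is more extreme than plus or minus 2.5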
The deposit covers about 23,000 reagents; below is a random part of those that have a named target and a result. In the full data, 98 (0.43%) are marked active. 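Only hit calls are given; the phospho-dAkt signals, z-scores and hit direction were not deposited.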 A plus sign joins genes that one reagent is predicted to hit.

alt (aluminum tubes) [SID104195107] showed inactive.
With knock-down of Cpr66D (Cuticular protein 66D) [SID104190432] the results were inactive.
Against Cpr66D (Cuticular protein 66D) [SID104190438], the values are inactive.
Depletion of CG11313 [SID104194087] gave: inactive.
Silencing of ewg (erect wing) [SID104198565] came out at: inactive.
For Aasdh (Aminoadipate-semialdehyde dehydrogenase) [SID104183259], the entry reads inactive.
Against Diedel3 (Diedel 3) [SID104199336] the deposit lists inactive.
Depletion of CG10584 [SID104191416] gave: inactive.
Gdap2 [SID104186581] showed inactive.
Gdap2 [SID104186582] scored inactive.
Knock-down of Pglym78 (Phosphoglyceromutase 78) [SID104196579] gave: inactive.
bin3 (bicoid-interacting protein 3) [SID104184711] gave inactive.
With knock-down of CG33773 [SID104193824], the screen gave inactive.
With knock-down of Kal1 (Kallmann syndrome 1) [SID104195775], the record shows inactive.
TBC1D23 (TBC1 domain family member 23) [SID104180449] scored inactive.
For RpS30 (Ribosomal protein S30) [SID104194911], the entry reads inactive.
Silencing of sqd (squid) [SID104194952] resulted in: inactive.
For sqd (squid) [SID104196858] the deposit lists inactive.
yellow-d [SID104184381] showed inactive.
Knock-down of CG30076 [SID104185286] resulted in: inactive.
B4 [SID104181660] showed active.
For B4 [SID104182967], the entry reads inactive.
After knock-down of ND-B14.5AL (NADH dehydrogenase (ubiquinone) B14.5 A subunit-like) [SID104191587] the results were inactive.
After knock-down of mthl5 (methuselah-like 5) [SID104195947], the record shows inactive.
After knock-down of CG13041 [SID104189714], the record shows inactive.
For CG12728 [SID104197675], the entry reads inactive.
After knock-down of CG14830 [SID104188668], the record shows inactive.
Against CG14830 [SID104189992], the values are inactive.
REG (Proteasome regulator gamma) [SID104200065] showed inactive.
Against CG10931 [SID104185807], the entry reads inactive.
Against Obp57c + Obp57b [SID104201538] the deposit lists inactive.
CG12702 [SID104199279] gave inactive.
ltl (larval translucida) [SID104189998] gave inactive.
ltl (larval translucida) [SID104190662] gave inactive.
Gfat2 (Glutamine:fructose-6-phosphate aminotransferase 2) [SID104194390] gave inactive.
Depletion of CG4229 [SID104190199] gave: inactive.
After knock-down of MP1 (Melanization Protease 1) [SID104191916], the record shows inactive.
Depletion of CG7848 [SID104186842] came out at: inactive.
Knock-down of CG13694 [SID104180155] resulted in: inactive.
With knock-down of CG31229 [SID104193101], the record shows inactive.
For CG11927 [SID104180129], the entry reads inactive.
After knock-down of Art4 (Arginine methyltransferase 4) [SID104195571], the screen gave inactive.
For CG8420 [SID104196210], the values are inactive.
For CG9338 [SID104183005], the values are inactive.
Silencing of S-Lap4 (Sperm-Leucylaminopeptidase 4) [SID104190749] resulted in: inactive.
tinc (tincar) [SID104194590] gave inactive.
Knock-down of tinc (tincar) [SID104194591] resulted in: inactive.
With knock-down of tinc (tincar) [SID104196100], the record shows inactive.
tinc (tincar) [SID104196101] scored active.
With knock-down of CG5906 [SID104190349], the screen gave inactive.
Against abo (abnormal oocyte) [SID104182718], the entry reads inactive.
With knock-down of mRpL3 (mitochondrial ribosomal protein L3) [SID104199892], the screen gave inactive.
Silencing of CG17202 [SID104194986] came out at: inactive.
Against ND1 (retired record) [SID104201065], the entry reads inactive.
AIMP3 (aaRS-interacting multifunctional protein 3) [SID104184292] showed inactive.
CG15820 [SID104188272] showed inactive.
With knock-down of Usp10 (Ubiquitin specific protease 10) [SID104188074], the record shows inactive.
Against Usp10 (Ubiquitin specific protease 10) [SID104188165], the entry reads inactive.
CG31337 [SID104192773] gave inactive.
Against Pdh (Photoreceptor dehydrogenase) [SID104191041], the entry reads inactive.
Depletion of Polr3G (RNA polymerase III subunit G) [SID104201233] gave: inactive.
After knock-down of Acp53C14a (Accessory gland protein 53C14a) [SID104187016], the screen gave inactive.
For CG7059 [SID104195979], the values are inactive.
Fs (Follistatin) [SID104186050] scored inactive.
After knock-down of Fs (Follistatin) [SID104186051], the screen gave inactive.
For Had2 (beta Hydroxy acid dehydrogenase 2) [SID104185763], the values are inactive.
Depletion of CG31688 + CG31687 [SID104181908] came out at: inactive.
CG13288 [SID104189754] scored inactive.
CG14232 [SID104199380] showed inactive.
CG2100 [SID104192095] scored inactive.
With knock-down of Sh3beta [SID104190793], the screen gave inactive.
After knock-down of Sh3beta [SID104201629], the record shows inactive.
For NLaz (Neural Lazarillo) [SID104201241], the values are inactive.

A run of entries from the list above, for reference:
Pdh (Photoreceptor dehydrogenase) [SID104191041]: outcome = inactive
Polr3G (RNA polymerase III subunit G) [SID104201233]: outcome = inactive
Acp53C14a (Accessory gland protein 53C14a) [SID104187016]: outcome = inactive
CG7059 [SID104195979]: outcome = inactive
Fs (Follistatin) [SID104186050]: outcome = inactive
Fs (Follistatin) [SID104186051]: outcome = inactive
Had2 (beta Hydroxy acid dehydrogenase 2) [SID104185763]: outcome = inactive
CG31688 + CG31687 [SID104181908]: outcome = inactive
CG13288 [SID104189754]: outcome = inactive
